PubChem BioAssay AID743454 | Peter MacCallum Cancer Centre | 2014

Screen: 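Genes whose loss kills vorinostat-resistant colon cancer cells under vorinostat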 (primary screen)
Cell system: human HCT116-VR colon cancer cells, selected for vorinostat resistance
Knock-down reagent: siRNA pool against human genes, 40 nM siRNA pool
Timing: vorinostat for 24 h, read-out about 72 h after transfection
Conditions: vorinostat at 2.5 µM final
Read-out: 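Two measures, CellTiter-Fluor viability and luminescent caspase 3/7 activity, each as fold change against same-plate mock wells, mean of duplicates, then screen-wide robust z-score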
Direction: viability robust z-score: higher = more viable cells than screen typical; caspase robust z-score: higher = more caspase 3/7 activity than screen typical
Active means: 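Hits are knock-downs in viability class RV1/RV2 or caspase class CA1/CA2, excluding ones that killed cells in the no-drug cell-count arm; hits then retested with single siRNAs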
Shown is a random part of about 18,000 deposited reagents. In the full data, 450 (2.5%) got an active call. 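Single biological run; no consistent viability z cut-off exists, so the class columns, not z-scores, define the calls.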 A number with no mark means an inactive call. The numbers tell different reagents against one gene apart. No sequences are given here.

target,reagent,viability hit class,caspase hit class,viability robust z-score,caspase robust z-score
PLXNA1,1,no change,no change,-0.74,2.17
AGO4,1,no change,no change,-0.28,1.4
ECHDC3,1,no change,no change,0.29,-0.88
LETM1,1,no change,no change,-1.73,1.85
EIF4E2,1,no change,no change,-1.48,-0.76
PTGDS,1,no change,no change,1.42,1.98
NNAT,1,no change,no change,-1.56,0.79
ZBTB18,1,no change,no change,0.5,1.09
ACSM4,1,no change,no change,0.87,-0.52
BRWD3,1,no change,no change,0.78,-0.78
DVL2,1,no change,no change,-0.86,-0.59
PDE1A,1,no change,no change,0.57,-0.59
DDOST,1,no change,no change,0.36,-0.3
TOR2A,1,no change,no change,-0.3,1.06
POLE4,1,no change,no change,-1.11,-0.6
MALSU1,1,no change,no change,0.4,-0.74
EREG,1,no change,no change,-1.82,1.29
EEF1E1,1,no change,no change,-2.54,4.29
MMACHC,1,no change,no change,0.64,0.25
DDX19B,1,RV2 (reduced viability) (active),no change,-3.91,2.16
SPRYD3,1,no change,no change,-1.06,-0.4
GSTM3,1,no change,no change,-1.09,2.6
ERV3-1,1,no change,no change,0.14,1.14
MMGT1,1,no change,no change,0.14,-0.48
MED9,1,no change,no change,-0.48,-0.02
SRM,1,no change,no change,0.57,1.84
CALB1,1,no change,no change,-1.7,3.78
EEF1AKMT2,1,no change,no change,-0.4,-1.14
PLAC8L1,1,no change,no change,0.25,-0.73
SIRPA,1,no change,no change,-0.11,-0.52
MMP7,1,no change,no change,-0.44,1.83
OR8D1,1,no change,no change,0.42,0.12
RAB3GAP2,1,no change,no change,1.59,-0.5
PEX10,1,no change,no change,0.55,-0.63
FNTB,1,no change,no change,-0.77,-0.08
GINS4,1,no change,no change,-1.56,0.38
LANCL1,1,no change,no change,0.42,-0.68
PBK,1,no change,no change,1.42,-0.7
F13B,1,no change,no change,-0.1,1.26
ATP4A,1,no change,no change,0.68,0.29
NBPF8,1,no change,no change,0.15,-0.22
TECRL,1,no change,no change,-0.46,-0.21
MYO18A,1,no change,no change,0.8,3.13
MYO18A,2,no change,no change,-0.05,-0.63
FEV,1,no change,no change,-0.22,2.08
ERCC8,1,no change,no change,-0.44,0.05
SPRR1B,1,no change,no change,-1.56,1.66
LYRM7,1,no change,no change,-0.06,-0.16
ADNP2,1,no change,no change,-2.81,-0.32
XAGE3,1,no change,no change,-1.12,0.46
EFTUD2,1,no change,no change,-3.27,-0.52
GDF7,1,no change,no change,-0.02,-0.72
NOX5,1,no change,no change,0.52,-0.8
BIRC3,1,no change,no change,0.36,-0.78
CFAP58,1,no change,no change,0.04,1.5
RAB7A,1,no change,no change,-0.56,-0.01
CRISPLD1,1,no change,no change,-1.81,2.36
RDH10,1,no change,no change,0.83,-0.56
NFYC,1,no change,no change,1.48,1.28
BAMBI,1,no change,no change,0.86,-0.23
PMS2P3,1,no change,no change,-0.8,0.36
DUSP8,1,no change,no change,-0.41,0.91
PDE8A,1,no change,no change,0.53,1.77
NLRX1,1,no change,no change,-0.06,3.22
SBF2,1,no change,no change,-0.42,-0.15
IL9,1,no change,no change,0.34,0.22
ZNF549,1,no change,no change,-1.1,-0.8
HOXA3,1,no change,no change,0.38,-0.48
RAB6D,1,no change,no change,0.02,-0.4
MN1,1,no change,no change,-0.86,-1.07
TSSK6,1,no change,no change,0.16,0.52
ITGA1,1,no change,no change,-0.99,-0.12
JKAMP,1,no change,no change,0.21,-0.32
